# Data reported in US20240376119A1, “SPIRO COMPOUND AND USE THEREOF” (CSPC Zhongqi Pharmaceutical Technology (Shijiazhuang) Co., …, priority 2021, published 2024).
# Sequences of proteins named here, by UniProt entry; tags and fusion partners are left off.
# UniProt Q06124, whole entry: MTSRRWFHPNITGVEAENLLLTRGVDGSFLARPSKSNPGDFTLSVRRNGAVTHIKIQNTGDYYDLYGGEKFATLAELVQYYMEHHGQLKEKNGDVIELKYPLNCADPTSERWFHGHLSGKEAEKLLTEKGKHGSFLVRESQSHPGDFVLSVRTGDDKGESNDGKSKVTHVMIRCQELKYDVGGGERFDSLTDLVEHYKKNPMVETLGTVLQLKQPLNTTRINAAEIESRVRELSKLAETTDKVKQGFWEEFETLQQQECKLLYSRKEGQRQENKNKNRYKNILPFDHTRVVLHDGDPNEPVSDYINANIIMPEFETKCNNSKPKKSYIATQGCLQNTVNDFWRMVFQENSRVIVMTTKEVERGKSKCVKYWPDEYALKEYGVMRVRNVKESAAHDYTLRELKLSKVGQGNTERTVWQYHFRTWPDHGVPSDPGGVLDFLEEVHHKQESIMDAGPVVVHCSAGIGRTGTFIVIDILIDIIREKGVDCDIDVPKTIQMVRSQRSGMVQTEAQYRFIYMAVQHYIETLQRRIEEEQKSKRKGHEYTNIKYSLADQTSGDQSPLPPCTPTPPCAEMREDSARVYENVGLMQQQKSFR
# Structures were worked out from names or drawings and are uncertain.
# Biological target: SHP2 (Homo sapiens (Human), UniProt Q06124)
# Assay: Assay for the inhibitory effect on the SHP2 enzyme (DiFMUP substrate, fluorescence)
# Details: read-out: Enzymatic Effect (IC50 on SHP2); SHP2 activated with SHP-2 activated peptide; DiFMUP 10 μM
# Procedure: 1× Assay buffer was prepared. A compound to be tested was diluted with DMSO solvent to a stock concentration of 10 mM. The compound to be tested was first diluted to an intermediate concentration of 1000 μM and then further diluted in a 3-fold gradient using DMSO. Therefore, the intermediate gradient dilution concentration of the compound to be tested was: 1000 μM, 3-fold dilution, 11 gradients. 100 nL of each concentration of the compound in the 384-well LDV echo plate was transferred to a new 384-well ELISA plate (assay plate) (corning, Cat #4514) by the Echo550 instrument. The final concentration of the compound to be tested was 10 μM, 3-fold dilution, 11 gradients in duplicate after 10 μL of the reaction reagent was added. The final DMSO concentration was 1%. For both negative and positive control wells, 100 nL DMSO would be transferred.
# A mixed liquor of 2× working SHP2 reagent (0.4 nM) and 0.5 μM SHP-2 activated peptide (BPS bioscience #79319-2) was prepared with 1× enzyme buffer. […] Read the plate at the excitation/emission wavelength of 358/455 nm after the ELISA plate was placed on the Spark machine.
# The RLU values were collected from Spark and the inhibition rate was calculated with the RLU values. […]
smiles,measurement,value
[2H][C@@]1(N)c2ccccc2CC12CCN(c1nc(N)c(Sc3cccc(-c4ncco4)c3Cl)nc1C(C)=O)CC2,IC50,< 0.02 µM
